Data as given in patent publication US20180364250A1.
These are yes or no findings as the source states them, for the method shown. Some binding calls cover weakened binding; strength is not graded here. Where a sequence is shown, tags or fusion partners need not be part of it.

Chains of the proteins cited; added tags and fusions are not shown. Lines headed by an entry give the natural chain unless they say otherwise; changes in a name come on top.
UniProt P0CG48: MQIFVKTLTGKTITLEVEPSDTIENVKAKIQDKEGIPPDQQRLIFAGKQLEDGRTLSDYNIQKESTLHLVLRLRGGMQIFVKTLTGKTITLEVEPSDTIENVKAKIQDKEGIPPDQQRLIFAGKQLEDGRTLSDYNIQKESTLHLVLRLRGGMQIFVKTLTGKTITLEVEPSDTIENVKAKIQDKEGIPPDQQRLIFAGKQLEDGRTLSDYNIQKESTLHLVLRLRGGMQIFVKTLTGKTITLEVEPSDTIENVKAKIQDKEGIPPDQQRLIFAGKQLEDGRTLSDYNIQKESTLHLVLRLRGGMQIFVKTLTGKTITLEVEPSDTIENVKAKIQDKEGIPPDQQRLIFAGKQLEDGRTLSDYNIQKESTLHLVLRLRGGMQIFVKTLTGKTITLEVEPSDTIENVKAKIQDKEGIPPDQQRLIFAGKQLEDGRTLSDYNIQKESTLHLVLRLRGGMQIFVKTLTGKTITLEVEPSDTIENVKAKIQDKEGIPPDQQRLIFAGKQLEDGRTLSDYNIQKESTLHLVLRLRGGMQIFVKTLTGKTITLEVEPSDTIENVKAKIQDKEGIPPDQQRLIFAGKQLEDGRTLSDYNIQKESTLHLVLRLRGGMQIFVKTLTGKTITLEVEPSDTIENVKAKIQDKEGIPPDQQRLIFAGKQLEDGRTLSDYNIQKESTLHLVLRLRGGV

Molecular target: Ubiquitin (free, untagged) (human) (UniProt P0CG48)
Assay: direct titration, relative fluorescence of 10 nM Alexa488 tSR

binding: binds
B1: Alexa488-tagged tSR (designed binder)
chain: MPSSHHHHHHSSGLVPRGSHMTEEEQIAYAMQMSLREAGGGSDLLCKKGCGYYGNPAWQGFCSKCWREEAHKCAAERAAAE
modifications: Alexa488 fluorophore, attachment site not stated
